Patent US20190175744A1, “INSULIN-INCRETIN CONJUGATES” (Merck Sharp & Dohme Corp., priority 2016, published 2019)
Part of at least one peptide drawing is inferred or uncertain, most often the ends. Starred links: 1 amine or outer side, 2 acyl side, 3 side chain; linkers in the order of their positions; H or OH if unused. Non-standard residues stand in square brackets, D forms with d. Residues, ends and D or L forms follow the SMILES beside them. Groups on a side chain read outwards from the residue. *: point of attachment. Lys(N3) = [N-]=[N+]=NCCCC[C@H](N)C(=O)O; γGlu = O=C(O)[C@H](CCC(=O)[*:2])N[*:1]; Palmitoyl = CCCCCCCCCCCCCCCC(=O)*; Aib = CC(C)(N)C(=O)O

Amino acid sequences for entries named in this document (tags omitted). Residues count along the entry.
UniProt P47871, 26-477: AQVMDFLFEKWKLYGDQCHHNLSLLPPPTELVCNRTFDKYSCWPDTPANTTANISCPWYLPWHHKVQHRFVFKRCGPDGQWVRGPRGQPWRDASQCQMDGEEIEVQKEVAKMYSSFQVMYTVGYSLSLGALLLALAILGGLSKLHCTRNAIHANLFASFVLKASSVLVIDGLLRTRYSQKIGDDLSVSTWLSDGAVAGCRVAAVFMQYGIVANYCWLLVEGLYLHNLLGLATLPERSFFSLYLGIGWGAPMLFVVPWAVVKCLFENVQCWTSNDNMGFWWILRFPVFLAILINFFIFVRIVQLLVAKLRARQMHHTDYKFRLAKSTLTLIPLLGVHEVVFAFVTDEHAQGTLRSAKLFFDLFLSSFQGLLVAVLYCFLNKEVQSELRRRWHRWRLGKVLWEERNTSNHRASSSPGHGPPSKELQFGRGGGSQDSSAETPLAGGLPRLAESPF
UniProt P43220, 24-463: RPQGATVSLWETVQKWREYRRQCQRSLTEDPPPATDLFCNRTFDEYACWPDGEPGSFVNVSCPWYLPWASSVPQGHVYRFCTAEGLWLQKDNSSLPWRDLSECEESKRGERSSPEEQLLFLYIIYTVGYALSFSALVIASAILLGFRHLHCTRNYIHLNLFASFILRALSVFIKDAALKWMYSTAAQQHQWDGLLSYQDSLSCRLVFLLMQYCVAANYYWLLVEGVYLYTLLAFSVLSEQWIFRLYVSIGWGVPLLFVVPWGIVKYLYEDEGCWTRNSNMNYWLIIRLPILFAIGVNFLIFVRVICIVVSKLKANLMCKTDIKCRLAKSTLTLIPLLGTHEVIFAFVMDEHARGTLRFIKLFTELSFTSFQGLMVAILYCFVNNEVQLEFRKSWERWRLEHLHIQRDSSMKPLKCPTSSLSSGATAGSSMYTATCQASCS

What was measured:
human GCGR = target: T1, human GCGR (Homo sapiens, UniProt P47871); experiment: cAMP activity assay, cells expressing human GCGR; assay type: cell-based;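 note: cAMP production read by luminescence after one hour of peptide exposure at room temperature, EC50 from logistic curve fit, native glucagon and GLP-1 as control peptides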
T1 construct: expressed in transfected cells; grown with Blasticidin and Hygromycin

human GLP1R = human GLP1R (Homo sapiens, UniProt P43220); experiment: cAMP activity assay, cells expressing human GLP1R; assay type: cell-based; conditions: Table 5, incretin peptides, read-out: hGLP1R EC50

## CCCCCCCCCCCCCCCC(=O)N[C@@H](CCC(=O)N[C@@H](CCC(=O)NCCCC[C@H](NC(=O)[C@H](CC(=O)O)NC(=O)[C@H](CO)NC(=O)[C@@H](NC(=O)[C@H](Cc1ccccc1)NC(=O)[C@@H](NC(=O)CNC(=O)[C@H](CCC(N)=O)NC(=O)[C@@H](CO)NC(=O)[C@@H](N)Cc1c[nH]cn1)[C@@H](C)O)[C@@H](C)O)C(=O)N[C@@H](CO)C(=O)N[C@@H](CO)C(=O)N[C@@H](Cc1ccc(O)cc1)C(=O)N[C@@H](CC(C)C)C(=O)N[C@@H](CC(=O)O)C(=O)NC(C)(C)C(=O)N[C@@H](CCCNC(=N)N)C(=O)N[C@@H](C)C(=O)N[C@@H](C)C(=O)N[C@@H](CCC(N)=O)C(=O)N[C@@H](CC(=O)O)C(=O)N[C@@H](Cc1ccccc1)C(=O)N[C@H](C(=O)N[C@@H](CCC(N)=O)C(=O)N[C@@H](Cc1c[nH]c2ccccc12)C(=O)N[C@@H](CC(C)C)C(=O)N[C@@H](CC(C)C)C(=O)N[C@@H](CC(N)=O)C(=O)N[C@H](C(=O)N[C@@H](CCCCN=[N+]=[N-])C(=O)N[C@@H](CCC(N)=O)C(=O)O)[C@@H](C)O)C(C)C)C(=O)O)C(=O)O [PEP8] (H-H[dS]QGTFTSDK([γGlu-γGlu-Palmitoyl])SSYLD[Aib]RAAQDFVQWLLNT[Lys(N3)]Q-OH; N-terminus assumed)
Human GCGR; Table 5, incretin peptides, cAMP, read-out: hGCGR_EC50
  EC50: 0.77 nM
Human GCGR; Table 5, ratio of hGCGR EC50 to hGLP1R EC50
  GCGR/GLP1R ratio: 2.5
Human GLP1R
  EC50: 0.31 nM
